In PubChem BioAssay AID504467 (National Center for Advancing Translational Sciences (NCATS), 2011):
Out of some 330,000 compounds screened, about 7,700 (2.3%) were called active. Inconclusive means that the source gave no clear call. Such entries were picked first, then a sample of the others. Calls follow the shape of the dose curve; as a rule, active = well fitted inhibition curve with a large enough effect; inconclusive = small, poorly fitted or top-dose-only effect, or effect the other way; inactive = flat fitted curve, though single readings scatter. Potencies of inconclusive entries are doubtful fits and often do not repeat.
% is scaled to controls: 0 for no effect and ±100 for the full control effect; potency is read from the fitted curve at half-maximal effect.

Assay: qHTS screen for small molecules that inhibit ELG1-dependent DNA repair in human embryonic kidney (HEK293T) cells expressing luciferase-tagged ELG1; also: nearly all actives have a fitted effect of over 55% in size
Details: HEK293T ELG1-luciferase reporter, luminescence, 16 h, DNA damage induced by 5-fluorouridine; activity change, negative = inhibition: at 46.1 µM (top of the series)
Method in brief: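 Step one: seed 2,000 cells per well. Step two: pin-transfer compound or DMSO alongside 5-fluorouridine. Step three: incubate 16 hr, 37 °C, 5% CO2. Step four: add ONE-Glo, wait 30 min, read luminescence.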
With Cc1cccc(NC2=NC(=S)N(c3cccc(C(=O)O)c3)C23CCCCC3)c1 the “activity change, negative = inhibition” value was inactive: -0.186%.
For COc1ccc(S(=O)(=O)Nc2cccc(SC)c2)cc1OC, the Potency was inconclusive: 4.11 µM [inhibitor, single point].
In the case of CCCNC(=O)c1ccccc1NC(=O)c1ccccc1N(C)S(=O)(=O)c1ccc(C)cc1, the Potency is reported as active: 23.1 µM.
In the case of COc1ccc(Br)cc1CN(C)CC(=O)Nc1c(Cl)ccc(C)c1Cl, the Potency is reported as inconclusive: 25.9 µM [inhibitor, partial curve, poor fit].
For Cc1ncoc1C(=O)Nc1cccc(Cl)c1, the Potency was inconclusive: 13 µM [activator, partial curve].
For O=C(CCc1nnc(Cc2ccc3c(c2)OCO3)o1)NCc1nc2ccccc2s1, the Potency was inconclusive: 7.3 µM [activator, full curve, poor fit].
For Cc1ccsc1C1Nc2ccccc2C(=O)N1O (stereo not given), the “activity change, negative = inhibition” value was inactive: 9.25%.
In the case of COCCN(C(=O)CCc1ccc(OC)cc1)c1nnc(-c2ccncc2)s1, the Potency is reported as inconclusive: 16.4 µM [inhibitor, partial curve, poor fit].
For O=C(Cc1ccccc1[N+](=O)[O-])NNC(=O)c1cccs1, the Potency was inconclusive: 29.1 µM [activator, single point].
With NS(=O)(=O)c1ccc(-c2ccc(/C=N/Nc3ccc(C(=O)O)cc3)o2)cc1 the Potency was inconclusive: 23.1 µM [activator, single point].
With COc1ccc(Nc2nnc(SCC(=O)c3cc(C)n(CC4CCCO4)c3C)s2)cc1 (stereo not given) the Potency was inconclusive: 29.1 µM [inhibitor, single point].
With CCCN=C1N(CC)C[C@@H]2[C@@H]3C(=O)N(C)C(=O)[C@@H]3[C@](CC)(C(=O)OC)N12 the Potency was inconclusive: 29.1 µM [activator, single point].
With Cc1ccc(NS(=O)(=O)c2cc(C(=O)NCc3ccccn3)ccc2Cl)cc1 the Potency was inconclusive: 0.562 µM [inhibitor, full curve, poor fit].
In the case of CC1(C)Cc2c(sc3nc4n(c(=O)c23)CCC4)CO1, the “activity change, negative = inhibition” value is reported as inactive: 17.1%.
In the case of CCOc1cc2c(Cl)ncnc2c(OCC)c1OCC, the Potency is reported as inconclusive: 29.1 µM [inhibitor, single point].
In the case of Cc1cccc(C)c1Nc1nnc(SCc2cc([N+](=O)[O-])cc3c2OCOC3)s1, the Potency is reported as inconclusive: 32.6 µM [inhibitor, single point].
With COc1ccc(C2=CC(c3ccc(OC)c(OC)c3)NC(=S)N2)cc1 (stereo not given) the “activity change, negative = inhibition” value was inactive: -14.3%.
For O=C1C(Cl)=C(N2CCCCCC2)C(=O)N1c1ccc(Br)cc1, the Potency was inconclusive: 16.4 µM [activator, partial curve, poor fit].
With CC(=O)c1ccc(NC(=O)c2cnn3ccccc23)cc1 the Potency was inconclusive: 0.517 µM [activator, full curve].
For O=[N+]([O-])c1ccccc1S(=O)(=O)Nc1cccc(-c2ccc(N3CCOCC3)nn2)c1, the Potency was inconclusive: 4.11 µM [activator, partial curve].
For CN(C)CCN(C(=O)c1ccco1)c1nc2cc3c(cc2s1)OCCO3, the Potency was inconclusive: 23.1 µM [activator, partial curve].
With CCSc1nsc(NC(=O)Nc2ccccc2F)n1 the Potency was inconclusive: 5.17 µM [activator, full curve].
In the case of COc1cc(CC(=O)Nc2cccc(S(=O)(=O)N(C)c3ccccc3)c2)cc(OC)c1OC, the Potency is reported as active: 9.2 µM.
For COc1ccc(NCC(=O)Nc2cccc(S(=O)(=O)N3CCCC3)c2)cc1Cl, the “activity change, negative = inhibition” value was inactive: 0%.
With Cc1ccc(OCC(=O)N2CCCCCCC2)cc1C the Potency was inconclusive: 11.6 µM [activator, partial curve, poor fit].
In the case of Cc1nc2ccccn2c1/C(O)=C1\C(=O)C(=O)N(CCN2CCOCC2)C1c1ccncc1 (stereo not given), the Potency is reported as inconclusive: 0.651 µM [inhibitor, single point].
For Clc1ccccc1C(c1ccccc1)(c1ccccc1)n1ccnc1, the “activity change, negative = inhibition” value was inactive: -24.7%.
In the case of O=C(c1ccccc1)N(Cc1ccc2c(c1)OCO2)Cc1nc2ccccc2c(=O)[nH]1, the Potency is reported as inconclusive: 32.6 µM [inhibitor, single point].
For CN(C)CCNC(=O)COc1ccc(Cl)cc1Cl, the “activity change, negative = inhibition” value was inactive: 2.55%.
For Cc1cccc(Nc2nnc(-c3ccc(N4CCOCC4)c([N+](=O)[O-])c3)c3ccccc23)c1, the Potency was active: 8.2 µM.
In the case of CC(C)CNC(=O)C(=O)Nc1ccc(N(C)C)cc1, the Potency is reported as inconclusive: 16.4 µM [activator, partial curve].
With Cn1c(=O)cc(OCC(=O)NCCc2ccc(Cl)cc2)c2ccccc21 the Potency was inconclusive: 9.2 µM [activator, partial curve].
For COC(=O)C1=C(C)NC(C)=C(C(=O)OC)C1c1ccc(C)o1, the “activity change, negative = inhibition” value was inactive: 0%.
With CCCCN(c1nc2ccccc2nc1Cl)S(=O)(=O)c1ccc(C)cc1 the Potency was inconclusive: 10.3 µM [inhibitor, partial curve, poor fit].
With COc1cc(O)cc2occ(-c3ccc(O)cc3)c(=O)c12 the Potency was inconclusive: 16.4 µM [activator, single point].
In the case of O=C(Nc1ccc(-c2cn3ccsc3n2)cc1)C1CCCC1, the Potency is reported as inconclusive: 6.51 µM [activator, single point].
For CC(C)c1ccc(NC(=O)CSc2ncccc2C(=O)Oc2cccc([N+](=O)[O-])c2)cc1, the Potency was inconclusive: 10.3 µM [activator, partial curve].
With COc1ccc(CCCc2n[nH]c(=S)o2)cc1 the “activity change, negative = inhibition” value was inactive: 3.09%.
With O=C(Nc1cccc2cccnc12)c1ccc(Br)o1 the Potency was inconclusive: 14.6 µM [activator, single point].
For O=S(=O)(c1ccccc1)c1nc(-c2ccco2)oc1N1CCCCC1, the “activity change, negative = inhibition” value was inactive: -1.03%.
With COc1ccc2[nH]c(=O)c(CN(C(=O)C(C)C)c3ccccc3OC)cc2c1 the “activity change, negative = inhibition” value was inactive: 0%.
For CCOC(=O)C1=C(COC(=O)CCC(=O)c2ccc(C)cc2)NC(=O)NC1C (stereo not given), the “activity change, negative = inhibition” value was inactive: 17.5%.
In the case of C[C@H](CO)N1C[C@H](C)[C@@H](CN(C)C)Oc2c(NC(=O)CCC(F)(F)F)cccc2C1=O, the “activity change, negative = inhibition” value is reported as inactive: 15.2%.
For Cc1cnc(NC(=O)c2cccc(S(=O)(=O)N3CC(C)OC(C)C3)c2)s1 (stereo not given), the “activity change, negative = inhibition” value was inactive: 0%.
For COC(=O)Nc1ccc(S(=O)(=O)N2CCCC(C(=O)NC3CCCCC3)C2)cc1 (stereo not given), the Potency was inconclusive: 23.1 µM [inhibitor, single point].
